{"source": "PubChem BioAssay AID1259254 – NCATS, 2017", "screen": "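Gene knock-downs that lead to re-replication, shown by excess G2 DNA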 (primary screen)", "cells": "human HCT116 colorectal cancer cells", "reagents": "single siRNA against human genes", "timing": "3 days", "measurement": "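Imaged Hoechst DNA stain sorts each cell into a cycle phase by DNA amount; per plate, G2 fraction set to 0% for non-targeting and 100% for GMNN siRNA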", "scale": "G2 robust z-score: higher = more G2 cells, more excess DNA replication", "call rule": "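Active siRNAs have a G2 robust z of 5 or more median absolute deviations over the median, which in these data means about 38% or higher of GMNN control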", "note": "The deposit covers about 59,000 reagents; this is a random part of them. About 1,550 of all reagents (2.6%) were called active. 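G2 share is only a proxy for re-replication; each gene was hit by three separate siRNAs, and active genes were retested.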 Entries without a mark were called inactive. Reagents against one gene are numbered here. Further read-outs or replicates are left out here. Not given: the amount of reagent."}
{"Target gene": "UCK2", "reagent no.": 1, "G2 robust z-score": -0.873}
{"Target gene": "UCK2", "reagent no.": 2, "G2 robust z-score": 2.16}
{"Target gene": "UCK2", "reagent no.": 3, "G2 robust z-score": -0.606}
{"Target gene": "PPM1E", "reagent no.": 1, "G2 robust z-score": -0.944}
{"Target gene": "PPM1E", "reagent no.": 2, "G2 robust z-score": -0.314}
{"Target gene": "PPM1E", "reagent no.": 3, "G2 robust z-score": -0.117}
{"Target gene": "TMEM106A", "reagent no.": 1, "G2 robust z-score": -0.188}
{"Target gene": "TMEM106A", "reagent no.": 2, "G2 robust z-score": -0.273}
{"Target gene": "TMEM106A", "reagent no.": 3, "G2 robust z-score": 0.397}
{"Target gene": "ADAMTS1", "reagent no.": 1, "G2 robust z-score": 1.82}
{"Target gene": "ADAMTS1", "reagent no.": 2, "G2 robust z-score": -0.552}
{"Target gene": "ADAMTS1", "reagent no.": 3, "G2 robust z-score": 0.54}
{"Target gene": "POTED", "reagent no.": 1, "G2 robust z-score": 0.223}
{"Target gene": "POTED", "reagent no.": 2, "G2 robust z-score": -1.29}
{"Target gene": "POTED", "reagent no.": 3, "G2 robust z-score": 0.425}
{"Target gene": "UGP2", "reagent no.": 1, "G2 robust z-score": "9.55 (active)"}
{"Target gene": "UGP2", "reagent no.": 2, "G2 robust z-score": 0.188}
{"Target gene": "UGP2", "reagent no.": 3, "G2 robust z-score": -0.0786}

2 consecutive entries already listed:
{"Target gene": "POTED", "reagent no.": 2, "G2 robust z-score": -1.29}
{"Target gene": "POTED", "reagent no.": 3, "G2 robust z-score": 0.425}
